Screen size: about 1,200 compounds; about 140 (12%) were called active.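 How the source made its calls: active means fitted curve falls past -35% activity change at a dose under twice the top valid dose, in every replicate test; inconclusive means replicate tests disagree on the call; inactive means the rest, including activity in the opposite direction.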 Most of the strongest results are missing from this list.
assay: CFTR-F508del correctors, dose response, FRT cells, YFP quenching, cherry-pick (AID 743402); conditions: FRT CFTR-F508del YFP iodide quenching, 24 h, channel opened with forskolin and a potentiator; at 26 µM (top of the series) unless noted;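 further: compounds act as correctors raising surface CFTR-F508del before acute activation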

Activity change, negative = more quenching (active), inactive:
COc1ccccc1NC(=S)N(Cc1ccco1)Cc1cc2cc(C)cc(C)c2[nH]c1=O -13.3%
O=C(O)c1ccccc1-c1nc(-c2ccccc2)c(-c2ccccc2)[nH]1 3.12%
COc1ccc(Nc2nc3cc(-c4sccc4C)sc3c(=O)n2C)cc1OC -35.7%
CCCCC1(C2CCCC2)NC(=O)NC1=O (configuration not stated) 13.3%
CCOC(=O)c1c(C)[nH]c(C)c1C(=O)COC(=O)c1ccc([N+](=O)[O-])s1 13.1%
c1ccc(CCN(Cc2ccccc2)Cc2nc(C3CC3)no2)cc1 0%
CCOc1ccc(C(=O)NCC(=O)NNC(=O)c2cc(C)oc2C)cc1OCC 10.7%
COc1ccc(S(=O)(=O)Nc2ccc3c(c2)C(=O)N([C@@H](C)CO)C[C@H](C)[C@H](CN(C)Cc2ccc(Cl)c(Cl)c2)OCCCC[C@@H](C)O3)cc1 -3.57%
CCCC(=O)Nc1ccc2c(c1)C(=O)N(C)C[C@@H](OC)[C@H](C)CN(C(=O)CN1CCOCC1)[C@H](C)CO2 17.9%
Cc1ccc(-n2nnnc2SCC(=O)NC(C(=O)O)(c2ccccc2)c2ccccc2)cc1C 3.33%
Cc1cc(C)c2nc(Cl)c(CN(Cc3ccco3)C(=O)Nc3ccccc3C)cc2c1 13.3%
O=[N+]([O-])c1ccc(N=Nc2c(Cl)cc(O)cc2Cl)cc1 18.8%
COc1ccc2c(c1)sc(N)[n+]2Cc1cc(C)cc2cccnc12 13.3%
NC(=O)CC(NC(=O)Cc1ccc(Br)cc1)c1ccc(NC2CC3CCC2C3)c([N+](=O)[O-])c1 (configuration not stated) 10%
COC(=O)c1ccc(S(=O)(=O)N2CCc3ccccc32)cc1 -7.69%
Cc1ccc(Nc2nc(CSc3nnc(-c4cccnc4)n3-c3ccccc3F)cs2)cc1 0%
CCN(CC)c1ccc(/C=N/NC(=O)c2cnccn2)c(O)c1 3.33%
CC1=NN(c2ccccc2)C(=O)C1N=Nc1cccc(O)c1 (configuration not stated) 0%
CCN(C(=O)COC(=O)c1cc(-c2ccccc2)nc2c1c(C)nn2-c1ccc(C)cc1)C1CCS(=O)(=O)C1 (configuration not stated) -17.9%
COc1ccc(NC(=O)C2(C)Cc3c(-c4cccc(NC(C)=O)c4)ccnc3O2)cc1 (configuration not stated) 13.3%
Cc1ccc(N2CC(C(=O)N(C)CC(=O)Nc3ccc(Cl)c(C(F)(F)F)c3)CC2=O)cc1 (configuration not stated) 3.33%
COC(=O)C1(C)CCCC2(C)C3CCC(C(C)C)C(CO)C3C(CO)CC12 (configuration not stated) 13.3%
COc1ccc2c(c1OC)OCC2C (configuration not stated) 0%
COc1cc(OC)c2c(-c3cccc(-c4ccc(OC)c(F)c4)c3)cc(=O)oc2c1 6.67%
Cc1nn(C)c(C)c1/C=C/C(=O)O 16.2%
O=C(C(Cc1ccccc1)n1cccc1)N1CCCCC1 (configuration not stated) 6.67%
C#Cc1ccc(C(=O)Nc2ccc(N3CCC(C)CC3)c(C(N)=O)c2)cc1 -3.12%
CO[C@@H](CN(C)S(=O)(=O)c1ccc(C)cc1)[C@H](C)CN([C@@H](C)CO)S(=O)(=O)c1cccc(Cl)c1 12.5%
COc1c(O[C@@H]2O[C@H](CO)[C@@H](O)[C@H](O)[C@H]2O)cc2c(c1OC)-c1ccc(SC)c(=O)cc1C(NC(C)=O)CC2 (some centres not stated) 14.3%
CCNC(=O)C1(C)CCN(C(=O)c2cc(F)ccc2C)C1 (configuration not stated) 3.12%
COc1cc(OC)cc(-c2cc3ccc(OC)cc3cn2)c1 -9.58%
COc1cccc(C2=CC(c3ccccc3)n3nnnc3N2)c1 (configuration not stated) -6.97%
CO[C@@H]1CN(C)C(=O)c2cc(NC(=O)Nc3c(C)noc3C)ccc2OC[C@@H](C)N(C)C[C@@H]1C 0%
O=C(C[C@@H]1C[C@H]2c3cc(NC(=O)CC4CC4)ccc3O[C@H]2[C@H](CO)O1)NCc1cccc(F)c1 6.67%
O=C(CN1CCCC1)N/N=C/c1c(O)ccc2ccccc12 -6.67%
COc1ccc(-c2ccc3c(c2)[C@H]2[C@H](CCN2S(=O)(=O)c2ccc(OC)cc2)[C@@H](CO)N3)cc1 -10.7% [at 23.5 µM]
CCN(C(=O)COc1ccc2ccc(=O)oc2c1)C1CCCCC1 17.9%
CCN(C(=O)COC(=O)c1cccc2ccccc12)c1c(N)n(Cc2ccccc2)c(=O)[nH]c1=O 3.33%
C[C@@H]1CN([C@H](C)CO)S(=O)(=O)c2ccc(/C=C/c3ccccc3)cc2O[C@H]1CN(C)C(=O)NC1CCCCC1 5.17%
Cc1ccc(-c2ccc3c(c2)O[C@@H](CN(C)C(=O)Nc2ccc(F)cc2)[C@@H](C)CN([C@@H](C)CO)S3(=O)=O)cc1 10.7%
Cc1ccc(C2NC(=O)c3ccccc3N2)c(C)c1 (configuration not stated) 3.33%
COc1ccc2c3c([nH]c2c1)[C@@H](CO)N(S(=O)(=O)c1cn(C)cn1)CC31CCN(CC2CCCCC2)CC1 1.72%
Cc1ccc(C2(C)NC(=O)N(CC(=O)Nc3nc(-c4ccccn4)cs3)C2=O)cc1 (configuration not stated) -12.8%
NC(=O)c1cc(Cl)ccc1OCC(=O)NC1CC1 4.17%
Cc1cccc(N2CCN(C(=O)c3c(-c4ccccc4)noc3C)CC2)c1C 3.33%
CC(C)CC1Nc2ncnc(N3CCN(c4ccccn4)CC3)c2N(Cc2ccc(Br)cc2)C1=O (configuration not stated) 3.33%
Cc1cccc(N(C)C(=O)c2cc3c(=O)[nH]c4ccc(C)cc4c3s2)c1 -6.67%
COCOc1cccc(CN2CCC(C)(Oc3cccc(C#N)c3)C2)c1 (configuration not stated) 22.3%
C#C[C@]1(O)CC[C@H]2[C@@H]3CCc4cc(OC)ccc4[C@H]3CC[C@@]21C -31.7%
COc1cc(OC)cc(C(=O)N2CC(=O)Nc3ccccc32)c1 -13.3%
CN(C[C@H](Cc1ccccc1)N(C[C@H](Cc1ccccc1)N(CCC(C)(C)C)N=O)N=O)N=O 0%
CCCNC(=O)c1ccc2c(=O)c(O)c(-c3cccc(Br)c3)[nH]c2c1 0%
CC(=O)OCC(=O)NCCCOc1cccc(CN2CCCCC2)c1 -3.85%
COCCCNc1nnc(Cc2ccc(Cl)cc2)c(=O)[nH]1 -8.17%
Oc1ccc2ccccc2c1N=Nc1nccs1 17.8%
CCOc1ccc2c(c1)C(C)=CC(C)(C)N2S(=O)(=O)c1ccc(F)cc1 12.9%
O=C(NCc1ccccc1)C(c1ccc(-c2ccccc2)cc1)n1c(=O)c(-c2cc3ccccc3[nH]2)nc2ccccc21 (configuration not stated) -16%
COCCNC(=O)C1CCCN(C(=O)c2ccc3sccc3c2)CC1 (configuration not stated) 16.7%
COc1cc(NC(=O)COC(=O)c2n[nH]c3ccccc23)c(C)cc1[N+](=O)[O-] 13.3%
CC(C)Cc1ccc(-c2cc3nc(NCc4cccc(Cl)c4)ccn3n2)cc1 -17.9%
C[C@H]1CN([C@@H](C)CO)C(=O)c2cccc(NC(=O)Nc3ccc(C(F)(F)F)cc3)c2O[C@H]1CN(C)C(=O)NC1CCCCC1 -5.3%
COc1cc(C(=O)N2CCC(C(N)=O)CC2)ccc1OCc1c(C)noc1C 0%
Cc1cc(Br)c(NC(=O)C(C)Sc2nnnn2C)c(Br)c1 (configuration not stated) 17.9%
O=C(O)C1=C[C@@H](O)[C@@H](O)[C@H](O)C1 -6.67%
COC(=O)C[C@@H]1CC[C@@H]2[C@H](COc3ccc(NC(=O)c4cc(C)on4)cc3C(=O)N2C)O1 -8.74%
COc1ccc(C(=O)OCC(=O)N2C(C)CCCC2C)cc1S(=O)(=O)N1CCOCC1 (configuration not stated) 14.8%
CCOc1ccc(S(=O)(=O)N2CCCCC2)cc1NC(=O)c1ccccc1 10.3%
Cc1cc(NCc2ccccn2)n2nc(C)c(-c3ccccc3)c2n1 13.1%
O=C(Cc1ccccn1)NCC[C@H]1CC[C@@H](NC(=O)Nc2ccc(C(F)(F)F)cc2)[C@@H](CO)O1 7.14%
COc1cc(C(=O)NCC2CCCO2)ccc1OCc1ccc(Cl)cc1 (configuration not stated) 6.25%
CCc1ccc(N2CC(C(=O)Nc3ccccc3N3CCCC3)CC2=O)cc1 (configuration not stated) 6.67%
CC(=NNC(=S)N1CC2CCC(CC2)C1)c1cnccn1 23.3%
CCOC(=O)C1=CN(Cc2cccc(I)c2)S(=O)(=O)N(C)C1C (configuration not stated) 11.3%
C[C@@H]1CN([C@@H](C)CO)C(=O)c2cc(C#CCN(C)C)cnc2O[C@H]1CN(C)Cc1ccc(-c2ccccc2)cc1 10.3%
COC(=O)c1[nH]c2c(c1C)C(=O)CC(c1cccc(OC)c1)C2 (configuration not stated) 0%
Cc1cc(NCc2ccccn2)n2ncc(-c3ccccc3)c2n1 -3.33%
Cc1ccc(C)c(NC(=O)CCC(=O)N/N=C/c2cc([N+](=O)[O-])ccc2O)c1 16.4%
CCC(C(=O)OCC(=O)C1(O)CCC2C3CCC4=CC(=O)CCC4(C)C3C(O)CC21C)C(C)C (configuration not stated) 23.3%
COc1ccccc1Cc1c(-c2ccc(Cl)cc2)nc2ccc(Br)cn12 -18.8%
CO[C@@H](CN(C)S(=O)(=O)c1ccc(C)cc1)[C@H](C)CN([C@H](C)CO)S(=O)(=O)c1cccc(Cl)c1 -7.14%
Cc1cc(/C=N/NC(N)=S)c(O)c(/C=N/NC(N)=S)c1 -20.2%
O=C(NCCCN1CCCC1=O)c1cc(S(=O)(=O)N2CCOCC2)c(Cl)cc1Cl -6.67%

Random excerpt: 3 entries already listed
Activity change, negative = more quenching (active), inactive:
CCOc1ccc(C(=O)NCC(=O)NNC(=O)c2cc(C)oc2C)cc1OCC 10.7%
Cc1cc(/C=N/NC(N)=S)c(O)c(/C=N/NC(N)=S)c1 -20.2%
COc1cc(NC(=O)COC(=O)c2n[nH]c3ccccc23)c(C)cc1[N+](=O)[O-] 13.3%

By substructure: the entries above with a furan ring, fused or not (3)
Activity change, negative = more quenching (active), inactive:
COc1ccccc1NC(=S)N(Cc1ccco1)Cc1cc2cc(C)cc(C)c2[nH]c1=O -13.3%
CCOc1ccc(C(=O)NCC(=O)NNC(=O)c2cc(C)oc2C)cc1OCC 10.7%
Cc1cc(C)c2nc(Cl)c(CN(Cc3ccco3)C(=O)Nc3ccccc3C)cc2c1 13.3%
